## Percent effect of library compounds

A: 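Whole-cell growth test on Mycobacterium tuberculosis, read after 4 days in a medium based on cholesterol and the lipid DPPC; the read-out is not stated. Compounds at 50 µM. The record gives no direction; compounds that gave an IC50 in retests scored well above the rest, so higher reads as more growth inhibition. About 69,000 compounds were tested under these conditions; 0.54% (about 370) showed 50% or more at least once.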
B: 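Phenotypic screen: M. tuberculosis growth, glucose 7H9 medium, 3 days; the read-out is not stated. Tested at 50 µM. Higher reads as more growth inhibition (inferred: compounds with an IC50 in retests scored well above the rest). Of about 69,000 compounds tested this way, about 760 (1.1%) reached 50% or more in at least one test.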

Each number is a percent effect as filed.
The record does not define 0% and 100%; most values in the screen are far below 50% and negative numbers occur (in some assays of this library far below -100).
This is an unselected part of the compounds tested.
Two or more numbers in one place are separate tests of the same structure; such repeats can differ widely.
A dash means the value is not listed here; it may have been measured.

SMILES	A	B
CC(C)c1n[nH]c(C2CN(CCCS(C)(=O)=O)CCO2)n1 (stereo unspecified)	-13.29	11.05
CCc1nc(N)sc1C(=O)N1CCCC(COc2cccc(C)c2)C1 (stereo unspecified)	-3.736 and 0.9224	-9.689 and -6.934
COc1ccccc1C1(O)CCCN(C(=O)c2cnc(SC)nc2)C1 (stereo unspecified)	3.45	44.27
CC(=O)N1CCc2c(nc(-c3ccccn3)nc2N(C)CC(O)CO)C1 (stereo unspecified)	0.3957	-7.398
O=C(C1CCC2(CCN(c3ncccn3)CC2)CO1)N1CCCC1 (stereo unspecified)	0.6577	-2.454
O=S1(=O)COCCN1Cc1ccc(F)c(C(F)(F)F)c1	0.5866	11.18
O=C(CCc1ccccc1)C1CCCN(Cc2cncn2C2CC2)C1 (stereo unspecified)	-23.41	15.96
O=C(CN1CCCC(Cn2cncn2)C1)NCCCc1ccccc1 (stereo unspecified)	13.37	12.98
Cc1n[nH]c(C)c1CCC(=O)NCC1CCOc2ccccc2C1 (stereo unspecified)	9.086	-6.03 and 0.5723
Cc1nccn1-c1ccc(CNC(=O)c2ccc([S+](C)[O-])cc2)cn1 (stereo unspecified)	0.1383	-38.66
COCCCN(Cc1ccccn1)S(=O)(=O)c1ccc(OC)cc1	5.704	-14.18 and 6.563
CC(=O)N1CCC(C(=O)N2CCCC(Cc3ccccn3)C2)CC1 (stereo unspecified)	-26.82	-15.07
Cc1noc(CCNC(=O)C2CSCN2C(=O)C2CCCC2)n1 (stereo unspecified)	1.849	-3.634 and 18.21
[H][C@]12CCC[C@@]1(CO)CN(C(=O)c1cc(CCC)n[nH]1)C2	-24.53	-20.71
COc1ncccc1CN1CCC2(CCCN2S(C)(=O)=O)CC1.O=C(O)C(F)(F)F.O=C(O)C(F)(F)F	-19.88	-37.39 and -4.113
Cc1ccccc1N1CCN(C2CCCN(C(=O)CCC(C)C)C2)CC1 (stereo unspecified)	5.54	23.53
CCCN(C(=O)c1cc2c([nH]c1=O)CCCC2=O)C1CCCCC1	-	16.59
O=C(O)C(F)(F)F.[H][C@@]12C[C@H](C(=O)NC3CCCC3)CN(Cc3ccoc3)[C@]1([H])CCO2	-20.22	-43.75
Cc1cc(C)c2cc(CNC(C)C)c3nn(C)c(=O)n3c2c1	9.947	21.96
CC(C)(C)C(NCC(=O)N1CCNC(=O)C1)c1ccccc1 (stereo unspecified)	-11.14	1.924
COc1ccc(F)c(NCc2ccc(C(=O)N(C)C)[nH]2)c1	2.888	13.63
CCOC1CCC2(CCN(C(=O)c3csnn3)CC2)c2ccccc21 (stereo unspecified)	-57.85	-72.74
CCc1noc(C2CCCCN2C(=O)c2cc(C)n(C)n2)n1 (stereo unspecified)	27.15	-41.15
CC(=O)N[C@H]1CCO[C@@H](c2cccc(NC(=O)c3cccc(F)c3)c2)C1	-30.2 and -8.01	6.12
Cc1nc(CN2CCc3nn(C(C)C)c(=O)cc3C2)oc1C	-21.37	-4.767
COCCNC(=O)NCCn1nc(C(F)(F)F)n(C)c1=O	19.19	20.92
CC(C)N[C@@H]1CO[C@H](CNC(=O)Nc2ccccc2)[C@H]1O	-8.321	-2.22 and -3.104
CCOCCCNC(=O)C(NC(=O)Cc1cccs1)c1ccccc1 (stereo unspecified)	-9.848	-21.66
CCN(CC)C(=O)Cn1ccc2cc(NC(C)=O)ccc21	2.164	-3.495
Cc1noc(C)c1C(=O)N1CCC(c2[nH]ncc2S(C)(=O)=O)C1 (stereo unspecified)	-5.47	22.55
Cn1nc(C#N)c2c1CN(C(=O)c1c[nH]cn1)CCC2	-22.04	-3.068
Cc1ccc(C)c(CS(=O)(=O)Cc2ccn(C)c(=O)c2)c1	2.948	5.058 and -6.455
CCC(C(=O)N(Cc1ccccc1OC)C1CC1)n1cccn1 (stereo unspecified)	-11.22	-2.387 and 3.998
Cc1nc(CN2CCCc3cc(OC(F)(F)F)ccc32)oc1C	12.07	22.27
COc1ccccc1-c1noc(CNc2ccc(F)cc2OCCO)n1	-10.8	-21.06
O=C(COCC1CC1)NCC(c1ccccc1)N1CCc2sccc2C1 (stereo unspecified)	-23.69	8.795
CCC[C@H]1CN(Cc2ccc(N(C)C)nc2)C[C@@H]1NC(=O)CCOC	-6.448 and 5.817	-5.414 and -10.73
Cc1ccc(C)n1-c1c(C(=O)NCC(c2ccsc2)N(C)C)cnn1C (stereo unspecified)	12.23	25.35
COc1cc(CNCC2CN(C3CC3)CCO2)cc(OC)c1.Cl (stereo unspecified)	-7.636	-0.4956
O=C(CC1CCCC1)Nc1ccc(-n2cc(Cl)cn2)nc1	1.392	6.31
CCOC(=O)c1ccc(S(=O)(=O)NCc2cccnc2N(C)C)cc1	-28.81	-10.12
Cc1ccc(NC2CCN(C(=O)c3ccc(C)o3)CC2)nn1	-4.141	-6.104
COCCc1nc(-c2cnn3c(C)cc(C)nc23)no1	0.5292	-7.317
CN(CCCNC(=O)c1ccc(C#N)cc1)CC(F)(F)F	4.564 and -2.709	-2.786
CCCS(=O)(=O)N1CCCC(c2nc(-c3ccccc3)c[nH]2)C1 (stereo unspecified)	23.34 and 35.04	40.84
O=C(O)C(F)(F)F.[H][C@@]12CCN(CCc3ccccc3)C[C@@]1([H])O[C@H](C(=O)NC1CCC1)C2	11.75 and -14.51	-8.016
CCn1nc(C)cc1C(=O)NCc1cccnc1N(C)C	7.963	2.463
Cc1ccc(C)c(NC(=O)Nc2c[nH]c(=O)[nH]c2=O)c1	-20.92	-22.87
CCn1cc(Br)c(C(=O)NCc2ccccc2)n1	-4.33	15.01
Cc1cc2cc(NC(=O)Cn3ncc(N4CCCC4)cc3=O)ccc2o1	-7.014	23.46
COc1ccccc1C(=O)NCC(c1cccn1C)N1CCOCC1 (stereo unspecified)	-14.61	1.94
Cc1nc(CN2C(=O)COC3(CCN(Cc4ccco4)CC3)C2C)cs1.O=C(O)C(F)(F)F (stereo unspecified)	-13.2	-28.07
Cl.Cl.[H][C@@]12CNCC[C@]1([H])N(C(C)C)[C@H](Cn1cncn1)C2	-5.977	-2.463 and -48.99
CN(C)CC1(O)CCN(C(=O)Cc2ccc3ccccc3c2)C1 (stereo unspecified)	3.001 and -1.355	-21.5
CC(=O)NCc1cc2n(n1)CCN(Cc1cc(-c3ccccc3)no1)C2	-5.484	-2.899
O=C(O)C(F)(F)F.O=C(O)C(F)(F)F.O=c1cc(Cn2cncn2)nc2n1CCCN(CCN1CCCC1)C2	-4.922	5.101
COc1ccccc1C(=O)NC(CC(=O)O)c1cccs1 (stereo unspecified)	-0.5036	5.13

Measurements from “University of Dundee, Small-Polar-MMV Screening Library” (2021), ChEMBL document CHEMBL3988442.